Data on 2 molecules can be found in ChEMBL document CHEMBL5674883, “The Heterochromatin Landscape in Migrating Cells and the Importance of H3K27me3 for Associated Transcriptome Alterations” (Cells, 2018).

Chains of the proteins cited; added tags and fusions are not shown.
UniProt Q61188, whole entry: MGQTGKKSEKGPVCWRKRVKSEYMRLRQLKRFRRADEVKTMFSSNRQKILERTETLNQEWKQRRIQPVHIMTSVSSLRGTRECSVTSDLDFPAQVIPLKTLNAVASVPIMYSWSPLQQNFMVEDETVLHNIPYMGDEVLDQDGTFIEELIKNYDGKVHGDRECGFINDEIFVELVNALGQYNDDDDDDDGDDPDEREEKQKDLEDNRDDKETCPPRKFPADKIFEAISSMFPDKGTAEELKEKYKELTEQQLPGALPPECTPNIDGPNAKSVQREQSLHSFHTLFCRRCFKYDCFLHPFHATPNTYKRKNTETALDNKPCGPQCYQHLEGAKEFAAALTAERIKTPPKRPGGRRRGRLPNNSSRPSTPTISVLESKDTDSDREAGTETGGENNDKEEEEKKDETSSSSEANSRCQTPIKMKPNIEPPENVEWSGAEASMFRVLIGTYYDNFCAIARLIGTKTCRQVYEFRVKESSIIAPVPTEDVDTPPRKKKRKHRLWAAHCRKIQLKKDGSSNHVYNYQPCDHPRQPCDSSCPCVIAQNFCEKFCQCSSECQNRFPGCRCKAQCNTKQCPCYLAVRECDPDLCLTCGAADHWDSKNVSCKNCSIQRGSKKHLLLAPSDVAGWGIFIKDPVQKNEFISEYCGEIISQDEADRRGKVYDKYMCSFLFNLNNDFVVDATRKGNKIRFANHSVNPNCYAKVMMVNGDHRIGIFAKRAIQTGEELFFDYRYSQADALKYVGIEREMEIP

Type in all cases: cell-based
For experiment [1], the target named is T1, RNA polymerase II (Mus musculus) (UniProt P08775+Q8CFI7+P97760+A0A3Q4L2S8+Q80UW8+P61219+P62488+Q923G2+P60898+O08740+Q63871+P62876). Description: Inhibition of RNA polymerase II in mouse B16-F1 migrating cells assessed as fold change in Fez2-RNA stability at 0.1 mM measured by ChIP-seq analysis relative to control cells.
Experiment [2] concerns the target T1, RNA polymerase II (Mus musculus). Nature of the experiment: Inhibition of RNA polymerase II in mouse B16-F1 migrating cells assessed as fold change in E2f2-RNA stability at 0.1 mM measured by ChIP-seq analysis relative to control cells.
The target is the same in experiment [3]. Nature of the experiment: Inhibition of RNA polymerase II in mouse B16-F1 migrating cells assessed as fold change in Rps11-RNA stability at 0.1 mM measured by ChIP-seq analysis relative to control cells.
Experiment [4] has the same target. Nature of the experiment: Inhibition of RNA polymerase II in mouse B16-F1 migrating cells assessed as fold change in Jade1-RNA stability at 0.1 mM measured by ChIP-seq analysis relative to control cells.
Experiment [5] shares this target. Nature of the experiment: Inhibition of RNA polymerase II in mouse B16-F1 migrating cells assessed as fold change in Klhl21-RNA stability at 0.1 mM measured by ChIP-seq analysis relative to control cells.
Experiment [6] shares this target. Nature of the experiment: Inhibition of RNA polymerase II in mouse B16-F1 migrating cells assessed as fold change in Bcas3-RNA stability at 0.1 mM measured by ChIP-seq analysis relative to control cells.
Experiment [7] has the same target. Nature of the experiment: Inhibition of RNA polymerase II in mouse B16-F1 migrating cells assessed as fold change in Atrx-RNA stability at 0.1 mM measured by ChIP-seq analysis relative to control cells.
Experiment [8] has the same target. Nature of the experiment: Inhibition of RNA polymerase II in mouse B16-F1 migrating cells assessed as fold change in Cdk2ap2-RNA stability at 0.1 mM measured by ChIP-seq analysis relative to control cells.
The target is the same in experiment [9]. Nature of the experiment: Inhibition of RNA polymerase II in mouse B16-F1 migrating cells assessed as fold change in 1810058I24Rik-RNA stability at 0.1 mM measured by ChIP-seq analysis relative to control cells.
Experiment [10] shares this target. Description: Inhibition of RNA polymerase II in mouse B16-F1 migrating cells assessed as fold change in Wdr37-RNA stability at 0.1 mM measured by ChIP-seq analysis relative to control cells.
Experiment [11] has the same target. Nature of the experiment: Inhibition of RNA polymerase II in mouse B16-F1 migrating cells assessed as fold change in Mrps18a-RNA stability at 0.1 mM measured by ChIP-seq analysis relative to control cells.
Experiment [12] has the same target. Description: Inhibition of RNA polymerase II in mouse B16-F1 migrating cells assessed as fold change in Pik3c2a-RNA stability at 0.1 mM measured by ChIP-seq analysis relative to control cells.
The target is the same in experiment [13]. Description: Inhibition of RNA polymerase II in mouse B16-F1 migrating cells assessed as fold change in Rnmt-RNA stability at 0.1 mM measured by ChIP-seq analysis relative to control cells.
Experiment [14] has the same target. Nature of the experiment: Inhibition of RNA polymerase II in mouse B16-F1 migrating cells assessed as fold change in Zfx-RNA stability at 0.1 mM measured by ChIP-seq analysis relative to control cells.
Experiment [15] shares this target. Nature of the experiment: Inhibition of RNA polymerase II in mouse B16-F1 migrating cells assessed as fold change in Cdc25a-RNA stability at 0.1 mM measured by ChIP-seq analysis relative to control cells.
Experiment [16] has the same target. Nature of the experiment: Inhibition of RNA polymerase II in mouse B16-F1 migrating cells assessed as fold change in Atp9a-RNA stability at 0.1 mM measured by ChIP-seq analysis relative to control cells.
Experiment [17] shares this target. Nature of the experiment: Inhibition of RNA polymerase II in mouse B16-F1 migrating cells assessed as fold change in Celf2-RNA stability at 0.1 mM measured by ChIP-seq analysis relative to control cells.
For experiment [18] the target is unchanged. Description: Inhibition of RNA polymerase II in mouse B16-F1 migrating cells assessed as fold change in Appl1-RNA stability at 0.1 mM measured by ChIP-seq analysis relative to control cells.
The target in experiment [19] is Histone-lysine N-methyltransferase EZH2 (Mus musculus) (UniProt Q61188). Description: Inhibition of EZH2 in mouse B16-F1 migrating cells assessed as fold change in H3K27me3-buffered regulated Sik1-mRNA expression at 3 uM measured by ChIP-seq analysis relative to control cells.
Experiment [20] shares this target. Description: Inhibition of EZH2 in mouse B16-F1 migrating cells assessed as fold change in H3K27me3-buffered regulated Macrod1-mRNA expression at 3 uM measured by ChIP-seq analysis relative to control cells.
For experiment [21] the target is unchanged. Nature of the experiment: Inhibition of EZH2 in mouse B16-F1 migrating cells assessed as fold change in H3K27me3-buffered regulated 2810474O19Rik-mRNA expression at 3 uM measured by ChIP-seq analysis relative to control cells.
For experiment [22] the target is unchanged. Nature of the experiment: Inhibition of EZH2 in mouse B16-F1 migrating cells assessed as fold change in H3K27me3-buffered regulated D630003M21Rik-mRNA expression at 3 uM measured by ChIP-seq analysis relative to control cells.
Experiment [23] has the same target. Nature of the experiment: Inhibition of EZH2 in mouse B16-F1 migrating cells assessed as fold change in H3K27me3-buffered regulated Atad5-mRNA expression at 3 uM measured by ChIP-seq analysis relative to control cells.
Experiment [24] shares this target. Description: Inhibition of EZH2 in mouse B16-F1 migrating cells assessed as fold change in H3K27me3-buffered regulated Adamts14-mRNA expression at 3 uM measured by ChIP-seq analysis relative to control cells.
Experiment [25] shares this target. Nature of the experiment: Inhibition of EZH2 in mouse B16-F1 migrating cells assessed as fold change in H3K27me3-buffered regulated Nck2-mRNA expression at 3 uM measured by ChIP-seq analysis relative to control cells.
Experiment [26] has the same target. Nature of the experiment: Inhibition of EZH2 in mouse B16-F1 migrating cells assessed as fold change in H3K27me3-buffered regulated Crem-mRNA expression at 3 uM measured by ChIP-seq analysis relative to control cells.
The target is the same in experiment [27]. Description: Inhibition of EZH2 in mouse B16-F1 migrating cells assessed as fold change in H3K27me3-dependent regulated Tnfaip8l1-mRNA expression at 3 uM measured by ChIP-seq analysis relative to control cells.
The target is the same in experiment [28]. Description: Inhibition of EZH2 in mouse B16-F1 migrating cells assessed as fold change in H3K27me3-buffered regulated Ttc39c-mRNA expression at 3 uM measured by ChIP-seq analysis relative to control cells.
For experiment [29] the target is unchanged. Description: Inhibition of EZH2 in mouse B16-F1 migrating cells assessed as fold change in H3K27me3-dependent regulated Hrct1-mRNA expression at 3 uM measured by ChIP-seq analysis relative to control cells.
For experiment [30] the target is unchanged. Nature of the experiment: Inhibition of EZH2 in mouse B16-F1 migrating cells assessed as fold change in H3K27me3-buffered regulated 9930021J03Rik-mRNA expression at 3 uM measured by ChIP-seq analysis relative to control cells.

The source gives many values for each of these; only a part stands here.

For `OC[C@H]1O[C@@H](n2cnc3cc(Cl)c(Cl)cc32)[C@H](O)[C@@H]1O`, the log2FC in [1] is 0.48; in experiment [2], -0.65; in experiment [3] it was 0.52; in [4], -0.55; in experiment [5] it was -0.65; in [6] it was 0.46. The log2FC in [7] was -0.64; in [8], 0.52; in experiment [9], 0.57; in experiment [10], -0.6; in experiment [11] it was 0.43; in experiment [12] it was -0.82. Further, the log2FC was -0.58 in [13]; -0.96 in [14]; -0.6 in experiment [15]; 0.52 in experiment [16]; -0.4 in experiment [17]; -0.67 in [18].
On to `CCCc1cc(C)[nH]c(=O)c1CNC(=O)c1cc(-c2ccnc(N3CCN(C)CC3)c2)cc2c1cnn2C(C)C`, for which the log2FC was 0.68 in experiment [19]; 0.45 in [20]; -0.54 in experiment [21]; 0.41 in experiment [22]; -0.5 in experiment [23]; 0.45 in experiment [24]. Also, the log2FC in [25] is -0.41; in [26], 0.55; in experiment [27] it was -0.41; in [28] it was 0.68; in experiment [29], 0.34; in experiment [30] it was -0.46.
